Measured data: PubChem BioAssay AID686938 (Drosophila RNAi Screening Center, 2013)

Screen: 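Fly genes required for calcium entry once internal stores are emptied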 (primary screen)
Cell system: Drosophila S2R+ cells
Reagents: long dsRNA against Drosophila genes, about 0.25 µg dsRNA per well, roughly 10,000 cells
Timing: 5 days of knock-down before the calcium assay
Challenge: thapsigargin (SERCA pump blocker) to empty calcium stores; entry signal taken 4 min after adding it
Detection: 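Duplicate raw fluo-4 intensities per well from a plate reader, at rest and four minutes after thapsigargin emptied calcium stores; entry-to-rest ratio filled for only some wells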
Scale: calcium entry signal: higher = stronger calcium signal after store depletion; resting calcium signal: higher = higher resting calcium signal
Units: calcium entry signal in fluorescence units; resting calcium signal in fluorescence units
Call rule: 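Hit if the duplicate-averaged plate z-score for entry over resting signal is under −3; wells with weak total dye signal (Fmax z < −2) or more than 5 off-targets removed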
Meaning of the calls: active = strongly reduced calcium entry; inactive = no strong reduction
In all, the deposit lists about 23,000 reagents; this is a random part of those that have a named target and a result. In the full data, 75 (0.33%) got an active call. 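Raw plate signals without normalisation; calls rest on plate z-scores that were not deposited; ratio present for only 364 wells.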 The record does not give: the dose of the treatment.

CG30419 [DRSC04208] gave calcium entry signal, replicate 1 = 3.81e7; calcium entry signal, replicate 2 = 7.37e7; resting calcium signal, replicate 1 = 2.07e7; resting calcium signal, replicate 2 = 3.11e7; inactive. With knock-down of CG30419 [DRSC04209] the results were calcium entry signal, replicate 1 = 3.97e7; calcium entry signal, replicate 2 = 6.21e7; resting calcium signal, replicate 1 = 2.05e7; resting calcium signal, replicate 2 = 2.85e7; inactive. For CG30419 [DRSC22519] the deposit lists calcium entry signal, replicate 1 = 2.54e7; calcium entry signal, replicate 2 = 2.37e7; resting calcium signal, replicate 1 = 1.25e7; resting calcium signal, replicate 2 = 1.05e7; inactive. Against CG13727 [DRSC10055], the values are calcium entry signal, replicate 1 = 4.69e7; calcium entry signal, replicate 2 = 5.47e7; resting calcium signal, replicate 1 = 2.14e7; resting calcium signal, replicate 2 = 2.37e7; inactive. Silencing of Ocho [DRSC11239] came out at: calcium entry signal, replicate 1 = 4.09e7; calcium entry signal, replicate 2 = 6.18e7; resting calcium signal, replicate 1 = 2.08e7; resting calcium signal, replicate 2 = 2.54e7; inactive. With knock-down of CG7126 [DRSC16201], the screen gave calcium entry signal, replicate 1 = 4.17e7; calcium entry signal, replicate 2 = 4.94e7; resting calcium signal, replicate 1 = 5.42e7; resting calcium signal, replicate 2 = 2.32e7; inactive.

2 entries from above, arranged by “calcium entry signal, replicate 1”, highest first:
CG30419 [DRSC04209] — calcium entry signal, replicate 1: 3.97e7; calcium entry signal, replicate 2: 6.21e7; resting calcium signal, replicate 1: 2.05e7; resting calcium signal, replicate 2: 2.85e7; outcome: inactive
CG30419 [DRSC22519] — calcium entry signal, replicate 1: 2.54e7; calcium entry signal, replicate 2: 2.37e7; resting calcium signal, replicate 1: 1.25e7; resting calcium signal, replicate 2: 1.05e7; outcome: inactive

The list goes on:
With knock-down of PrBP (Prenyl-binding protein) [DRSC03189] the results were calcium entry signal, replicate 1 = 3.27e7; calcium entry signal, replicate 2 = 4.41e7; resting calcium signal, replicate 1 = 1.58e7; resting calcium signal, replicate 2 = 1.69e7; inactive. After knock-down of CG13557 [DRSC04195], the record shows calcium entry signal, replicate 1 = 4.18e7; calcium entry signal, replicate 2 = 4.82e7; resting calcium signal, replicate 1 = 2.02e7; resting calcium signal, replicate 2 = 2.23e7; inactive. After knock-down of CG13084 [DRSC02188], the record shows calcium entry signal, replicate 1 = 5.63e7; calcium entry signal, replicate 2 = 4.60e7; resting calcium signal, replicate 1 = 2.63e7; resting calcium signal, replicate 2 = 2.12e7; inactive. With knock-down of CG9331 [DRSC03206], the screen gave calcium entry signal, replicate 1 = 3.32e7; resting calcium signal, replicate 1 = 1.63e7; inactive. For scf (supercoiling factor) [DRSC08735] the deposit lists calcium entry signal, replicate 1 = 3.11e7; calcium entry signal, replicate 2 = 4.11e7; resting calcium signal, replicate 1 = 1.56e7; resting calcium signal, replicate 2 = 1.80e7; inactive. PheRS-m (Phenylalanyl-tRNA synthetase, mitochondrial) [DRSC05915] showed calcium entry signal, replicate 1 = 3.78e7; calcium entry signal, replicate 2 = 3.60e7; resting calcium signal, replicate 1 = 1.61e7; resting calcium signal, replicate 2 = 1.71e7; inactive.

With knock-down of Ir92a (Ionotropic receptor 92a) [DRSC15111], the screen gave calcium entry signal, replicate 1 = 3.21e7; calcium entry signal, replicate 2 = 4.80e7; resting calcium signal, replicate 1 = 5.43e7; resting calcium signal, replicate 2 = 2.34e7; inactive. Depletion of CG33189 [DRSC21427] gave: calcium entry signal, replicate 1 = 4.84e7; calcium entry signal, replicate 2 = 3.70e7; resting calcium signal, replicate 1 = 2.78e7; resting calcium signal, replicate 2 = 1.69e7; inactive.
